Binding data for one substance are collected here from article PMC11989440.

Protein sequences, listed by entry. Tags and fused reporters are not part of them. Lines headed by an entry give the natural chain unless they say otherwise; changes in a name come on top.
UniProt Q8N4S9: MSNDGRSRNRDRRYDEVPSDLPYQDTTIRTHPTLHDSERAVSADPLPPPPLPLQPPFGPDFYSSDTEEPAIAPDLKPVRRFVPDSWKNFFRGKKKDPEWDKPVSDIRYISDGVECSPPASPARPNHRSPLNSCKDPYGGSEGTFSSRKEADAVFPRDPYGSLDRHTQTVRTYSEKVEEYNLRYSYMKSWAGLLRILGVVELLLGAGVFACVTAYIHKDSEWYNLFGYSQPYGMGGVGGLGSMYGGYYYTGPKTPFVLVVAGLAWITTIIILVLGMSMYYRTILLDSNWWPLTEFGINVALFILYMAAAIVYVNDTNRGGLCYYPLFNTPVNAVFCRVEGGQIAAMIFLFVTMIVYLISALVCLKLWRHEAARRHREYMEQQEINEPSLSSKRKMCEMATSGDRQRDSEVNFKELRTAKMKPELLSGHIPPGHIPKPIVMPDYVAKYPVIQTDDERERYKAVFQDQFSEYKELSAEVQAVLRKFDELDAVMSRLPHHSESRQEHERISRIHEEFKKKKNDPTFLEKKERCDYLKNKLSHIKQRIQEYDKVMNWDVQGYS
UniProt Q07157: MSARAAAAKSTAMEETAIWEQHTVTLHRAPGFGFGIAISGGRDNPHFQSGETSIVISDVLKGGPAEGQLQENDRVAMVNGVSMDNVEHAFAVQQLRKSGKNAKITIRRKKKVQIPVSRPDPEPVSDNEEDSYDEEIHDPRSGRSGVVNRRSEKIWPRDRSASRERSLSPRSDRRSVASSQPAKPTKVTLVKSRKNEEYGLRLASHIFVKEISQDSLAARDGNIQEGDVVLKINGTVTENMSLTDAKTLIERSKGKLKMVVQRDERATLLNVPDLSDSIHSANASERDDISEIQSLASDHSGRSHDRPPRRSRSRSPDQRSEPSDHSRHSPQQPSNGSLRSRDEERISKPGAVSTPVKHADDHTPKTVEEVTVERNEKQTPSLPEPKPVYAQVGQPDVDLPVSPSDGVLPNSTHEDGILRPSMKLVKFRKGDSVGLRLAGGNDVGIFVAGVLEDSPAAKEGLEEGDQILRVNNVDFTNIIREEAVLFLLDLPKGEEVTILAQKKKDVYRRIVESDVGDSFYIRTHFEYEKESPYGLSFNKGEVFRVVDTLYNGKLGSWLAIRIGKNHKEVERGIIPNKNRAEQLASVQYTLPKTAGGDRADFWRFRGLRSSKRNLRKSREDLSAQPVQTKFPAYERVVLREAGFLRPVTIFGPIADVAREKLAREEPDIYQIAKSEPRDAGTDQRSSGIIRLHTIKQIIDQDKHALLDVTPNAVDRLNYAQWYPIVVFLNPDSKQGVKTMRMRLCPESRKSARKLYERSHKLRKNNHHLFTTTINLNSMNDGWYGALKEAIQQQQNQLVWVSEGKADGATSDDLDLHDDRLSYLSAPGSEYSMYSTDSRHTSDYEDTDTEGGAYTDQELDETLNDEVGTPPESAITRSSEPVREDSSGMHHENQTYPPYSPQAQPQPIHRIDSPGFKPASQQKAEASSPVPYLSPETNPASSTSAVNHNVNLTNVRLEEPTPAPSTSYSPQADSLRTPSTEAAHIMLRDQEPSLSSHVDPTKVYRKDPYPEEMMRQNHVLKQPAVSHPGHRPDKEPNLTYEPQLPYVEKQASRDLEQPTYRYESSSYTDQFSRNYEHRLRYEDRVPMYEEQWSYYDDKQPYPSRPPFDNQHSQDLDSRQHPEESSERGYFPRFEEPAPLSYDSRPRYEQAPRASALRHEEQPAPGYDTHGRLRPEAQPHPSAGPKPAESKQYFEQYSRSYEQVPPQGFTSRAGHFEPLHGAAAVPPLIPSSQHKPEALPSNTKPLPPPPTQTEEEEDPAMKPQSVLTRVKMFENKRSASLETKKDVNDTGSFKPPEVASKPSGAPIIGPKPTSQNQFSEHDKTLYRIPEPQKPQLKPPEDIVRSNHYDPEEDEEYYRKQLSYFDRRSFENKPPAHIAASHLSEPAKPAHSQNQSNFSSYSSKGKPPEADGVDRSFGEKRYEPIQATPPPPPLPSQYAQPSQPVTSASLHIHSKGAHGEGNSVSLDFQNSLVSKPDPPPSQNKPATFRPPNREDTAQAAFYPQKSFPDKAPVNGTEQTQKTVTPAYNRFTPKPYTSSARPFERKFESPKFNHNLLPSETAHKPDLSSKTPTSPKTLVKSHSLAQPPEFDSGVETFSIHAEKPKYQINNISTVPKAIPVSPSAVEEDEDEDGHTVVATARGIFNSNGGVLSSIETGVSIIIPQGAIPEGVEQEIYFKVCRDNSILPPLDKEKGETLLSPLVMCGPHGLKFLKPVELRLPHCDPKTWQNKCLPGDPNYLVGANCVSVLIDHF

The assay addresses MARVELD2 p.(Val354Serfs*5) mutant, FLAG-tagged (human) (UniProt Q8N4S9). The assay is described as follows: co-IP; lysates of HEK-293 cells 48 h after transfection with FLAG-MARVELD2 wild type or mutant; 100 ug protein; antibodies against ZO-1, FLAG or IgG control at 4 °C overnight, protein A agarose beads; SDS-PAGE and blot stained for ZO-1; lysis buffer with NaCl, 1% Triton X-100, 0.1% SDS, Tris pH 7.5, 1% deoxycholate.

No constants are given. Whether binding was seen depends on the method and setting. In cells and extracts the contact can be indirect. Binding calls can cover weak binding; strength is not graded here.

Turning to “zonula occludens-1 (ZO-1) (from UniProt Q07157 1-1748)”, the binding result is “binds”.
